Binding data for 2 substances are collected here from article PMC10290137, “Systems-level analyses of protein-protein interaction network dysfunctions via epichaperomics identify cancer-specific mechanisms of stress adaptation” (Nature Communications, 2023).

Protein sequences, listed by entry. Tags and fused reporters are not part of them.
UniProt P11142: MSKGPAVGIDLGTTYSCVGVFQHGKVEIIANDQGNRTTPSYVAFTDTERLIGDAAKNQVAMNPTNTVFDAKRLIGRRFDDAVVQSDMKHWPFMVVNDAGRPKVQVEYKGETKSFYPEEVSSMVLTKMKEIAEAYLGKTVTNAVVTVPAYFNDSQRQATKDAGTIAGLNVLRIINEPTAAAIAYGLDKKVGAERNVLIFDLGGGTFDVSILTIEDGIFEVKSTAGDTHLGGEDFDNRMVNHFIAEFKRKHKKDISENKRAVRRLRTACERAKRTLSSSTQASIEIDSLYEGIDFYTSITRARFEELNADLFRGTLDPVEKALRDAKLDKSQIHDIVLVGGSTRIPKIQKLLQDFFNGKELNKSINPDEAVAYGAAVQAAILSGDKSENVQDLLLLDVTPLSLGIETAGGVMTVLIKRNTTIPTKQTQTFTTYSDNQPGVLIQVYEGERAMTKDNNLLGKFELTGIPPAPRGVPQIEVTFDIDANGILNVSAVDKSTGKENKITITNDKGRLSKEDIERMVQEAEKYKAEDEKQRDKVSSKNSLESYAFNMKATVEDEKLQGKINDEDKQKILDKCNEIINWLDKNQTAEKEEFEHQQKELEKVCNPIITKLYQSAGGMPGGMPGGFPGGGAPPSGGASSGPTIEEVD
UniProt P08238: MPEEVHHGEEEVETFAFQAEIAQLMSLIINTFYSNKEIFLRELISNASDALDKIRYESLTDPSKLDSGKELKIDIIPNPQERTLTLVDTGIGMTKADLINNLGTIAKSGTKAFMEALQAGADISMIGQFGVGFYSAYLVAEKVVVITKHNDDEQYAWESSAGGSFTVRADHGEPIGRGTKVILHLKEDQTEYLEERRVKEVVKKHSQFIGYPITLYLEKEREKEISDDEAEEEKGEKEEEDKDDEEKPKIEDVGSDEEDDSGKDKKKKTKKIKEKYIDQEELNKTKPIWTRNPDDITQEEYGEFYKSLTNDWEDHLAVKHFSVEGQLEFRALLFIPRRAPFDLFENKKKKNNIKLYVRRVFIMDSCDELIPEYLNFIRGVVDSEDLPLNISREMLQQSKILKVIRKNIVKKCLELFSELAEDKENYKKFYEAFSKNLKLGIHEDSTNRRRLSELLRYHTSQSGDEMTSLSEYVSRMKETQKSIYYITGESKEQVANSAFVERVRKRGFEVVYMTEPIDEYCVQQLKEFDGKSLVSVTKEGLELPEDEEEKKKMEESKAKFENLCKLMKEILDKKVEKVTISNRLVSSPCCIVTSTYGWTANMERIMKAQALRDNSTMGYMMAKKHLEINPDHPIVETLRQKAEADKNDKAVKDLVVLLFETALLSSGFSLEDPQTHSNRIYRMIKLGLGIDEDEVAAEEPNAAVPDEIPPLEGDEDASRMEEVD
UniProt P40763: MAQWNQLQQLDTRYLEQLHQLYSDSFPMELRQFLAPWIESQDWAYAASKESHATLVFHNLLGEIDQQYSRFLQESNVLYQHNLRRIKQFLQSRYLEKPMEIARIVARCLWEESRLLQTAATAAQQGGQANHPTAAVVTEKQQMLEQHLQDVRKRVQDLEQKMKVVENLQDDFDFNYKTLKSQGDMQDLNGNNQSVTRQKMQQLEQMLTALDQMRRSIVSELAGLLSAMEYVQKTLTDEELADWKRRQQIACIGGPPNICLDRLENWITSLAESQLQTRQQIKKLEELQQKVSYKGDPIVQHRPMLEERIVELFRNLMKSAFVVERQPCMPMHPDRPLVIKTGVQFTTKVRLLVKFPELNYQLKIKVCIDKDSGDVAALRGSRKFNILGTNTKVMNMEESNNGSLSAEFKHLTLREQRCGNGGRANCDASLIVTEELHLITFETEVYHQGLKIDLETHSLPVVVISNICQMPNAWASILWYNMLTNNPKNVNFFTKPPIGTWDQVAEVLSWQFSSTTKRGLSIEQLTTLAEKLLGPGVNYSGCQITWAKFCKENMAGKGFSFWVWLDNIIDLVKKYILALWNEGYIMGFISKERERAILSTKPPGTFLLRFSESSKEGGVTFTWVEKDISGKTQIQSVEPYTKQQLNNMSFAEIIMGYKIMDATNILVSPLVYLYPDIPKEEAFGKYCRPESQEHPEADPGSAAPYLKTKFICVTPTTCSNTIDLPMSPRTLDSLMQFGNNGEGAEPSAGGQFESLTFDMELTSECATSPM
UniProt Q92598: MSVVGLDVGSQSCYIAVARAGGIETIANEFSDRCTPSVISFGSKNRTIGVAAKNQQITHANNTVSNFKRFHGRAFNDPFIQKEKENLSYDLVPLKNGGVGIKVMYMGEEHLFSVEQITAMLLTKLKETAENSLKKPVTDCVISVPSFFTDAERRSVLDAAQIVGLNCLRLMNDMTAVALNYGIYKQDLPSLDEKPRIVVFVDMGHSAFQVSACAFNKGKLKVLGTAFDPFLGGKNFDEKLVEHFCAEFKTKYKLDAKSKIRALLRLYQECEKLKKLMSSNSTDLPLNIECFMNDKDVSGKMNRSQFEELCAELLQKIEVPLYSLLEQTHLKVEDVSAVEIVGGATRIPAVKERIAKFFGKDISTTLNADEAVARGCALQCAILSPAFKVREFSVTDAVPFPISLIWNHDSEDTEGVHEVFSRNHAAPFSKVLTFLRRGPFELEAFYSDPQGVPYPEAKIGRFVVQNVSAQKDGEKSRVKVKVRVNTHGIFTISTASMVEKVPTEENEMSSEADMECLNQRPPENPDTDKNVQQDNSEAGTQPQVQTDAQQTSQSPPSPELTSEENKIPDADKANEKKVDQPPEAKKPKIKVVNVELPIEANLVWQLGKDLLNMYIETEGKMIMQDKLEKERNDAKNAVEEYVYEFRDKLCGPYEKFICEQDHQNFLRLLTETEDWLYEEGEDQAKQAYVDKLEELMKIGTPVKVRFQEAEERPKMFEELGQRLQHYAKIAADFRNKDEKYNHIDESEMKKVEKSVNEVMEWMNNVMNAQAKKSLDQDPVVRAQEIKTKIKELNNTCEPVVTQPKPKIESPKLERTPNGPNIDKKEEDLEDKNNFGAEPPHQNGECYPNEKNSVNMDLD

Assay [1] concerns the target heat shock cognate 70 (HSC70) (human (endogenous in MDA-MB-468)) (UniProt P11142). Briefly: co-IP; anti-HSC70 antibody (ADI-SPA-815) or normal rat IgG, protein G agarose, 250 µg MDA-MB-468 lysate in 20 mM Tris pH 7.4, 20 mM KCl, 5 mM MgCl2, 0.01% NP40, 4 °C overnight; cells treated with 2 µM LSI137 for the indicated times; Western blot. For orientation: In western blotting, separated proteins are transferred to a membrane and probed.

Assay [2] has the same target. Briefly: pull-down; chemical affinity purification: YK5-B (biotinylated HSP70s ligand) on streptavidin beads incubated with MDA-MB-468 (and ASPC1) homogenate in 20 mM Tris pH 7.4, 20 mM KCl, 5 mM MgCl2, 0.01% NP40, 4 °C; cargo washed 4x, Western blot; controls YK56 or biotin beads; cells also pre-treated with PU-H71 (1 µM, 2 h).
The target in assay [3] is heat shock protein 90 beta (HSP90β) (human (endogenous in MDA-MB-468)) (UniProt P08238). The experiment in a line: pull-down; chemical affinity purification: PU-H71 immobilised beads (PU-beads, HSP90 ligand; 40 µL, 3 h, 4 °C) with lysate of MDA-MB-468 cells pre-treated with vehicle or LSI137 (1 µM, 2 h); Western blot.

These are yes or no findings as the source states them, for the method shown. In cells and extracts the contact can be indirect. Some entries that bind do so weakly or less than the wild type.

Turning to “signal transducer and activator of transcription 3 (STAT3) (from UniProt P40763 1-770)”, in assay [1], the binding entry is given as “binds”.

For HSP110 (from UniProt Q92598 1-858), the binding result in assay [2] and in assay [3] was “binds” each time.
